Percent effect of library compounds

Protein sequences, listed by entry. Tags and fused reporters are not part of them.
UniProt P9WNZ1, whole entry: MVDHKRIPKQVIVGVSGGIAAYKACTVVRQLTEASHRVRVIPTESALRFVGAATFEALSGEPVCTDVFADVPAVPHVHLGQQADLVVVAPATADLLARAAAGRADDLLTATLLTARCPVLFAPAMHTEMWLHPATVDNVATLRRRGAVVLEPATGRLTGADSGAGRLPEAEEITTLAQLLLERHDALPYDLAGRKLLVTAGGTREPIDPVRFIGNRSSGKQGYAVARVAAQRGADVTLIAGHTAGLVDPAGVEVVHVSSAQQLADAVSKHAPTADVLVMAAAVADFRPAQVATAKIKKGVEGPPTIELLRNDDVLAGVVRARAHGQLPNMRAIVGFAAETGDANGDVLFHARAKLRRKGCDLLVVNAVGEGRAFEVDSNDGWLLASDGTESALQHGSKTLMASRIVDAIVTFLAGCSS

Leishmania in macrophages: 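Cell assay of Leishmania donovani living inside macrophages; the read-out is not stated. Tested at 30 µM. Direction is inferred from retests: higher values go with stronger inhibition. Size under these conditions: about 69,000 compounds, about 1,000 of them at 50% or above in at least one test.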
CoaBC: 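Enzyme assay of CoaBC with a phosphate dye (Biomol Green) read at 650 nm. Target: Coenzyme A biosynthesis protein CoaBC, Mycobacterium tuberculosis (UniProt P9WNZ1). Tested at 30 µM. Higher reads as stronger inhibition, judged from the few compounds that gave an IC50. Most strong results did not repeat in a second test. Size under these conditions: about 67,000 compounds, about 40 of them at 50% or above in at least one test.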

Each number is a percent effect as filed.
How 0% and 100% were set is not recorded. Most values in the screen are low, and negative values occur.
The compounds are a random part of those screened.
Two or more numbers in one place are separate tests of the same structure; such repeats can differ widely.
A dash means the value is not listed here; it may have been measured.

structure,Leishmania in macrophages,CoaBC
[H][C@]12CCN(C(=O)NC(C)C)CC[C@@]1([H])S(=O)(=O)N(Cc1cccc(Cl)c1)C2,-20.54%,-
O=C(Cc1cn2ccccc2n1)N1CCCC(n2cccn2)C1 (configuration not stated),5.012%,-12.06%
Cc1noc([C@H]2C[C@H]3OCC[C@H]3N(S(=O)(=O)C3CC3)C2)n1,-,4.086%
CCC(CN1CCCC1)n1cncc1-c1cnn(-c2ccccc2)c1 (configuration not stated),-,-5.327%
CCC1(C(=O)O)CCCN(C(=O)c2ccc(O)c(Cl)c2)C1 (configuration not stated),-8.633%,6.341%
CCn1ccnc1CN1CCCN(C(=O)c2cccc(C#N)c2)CC1,22.8%,5.181%
CS(=O)(=O)N1CCCC(Cc2cnc(Br)cn2)CC1 (configuration not stated),-38.5%,-7.73%
CC(NCc1ccc(F)cc1)c1ccc(OCC(=O)NC2CC2)cc1 (configuration not stated),3.484%,1.044%
Cc1cnn(CC(=O)Nc2cc(-n3nnnc3C3CC3)ccc2F)c1,1.472%,2.258%
Cc1nc(C)n(Cc2cccc(NC(=O)N(C)CCC(C)O)c2)n1 (configuration not stated),7.625%,6.855%
COCCC(=O)NCC1Cn2nnc(-c3cccc(F)c3)c2CO1 (configuration not stated),-3.75%,2.606%
OC1(CN2CCC(Oc3cccc(C(F)(F)F)c3)CC2)CCNC1 (configuration not stated),100.3%,-28.57%
CC(C)c1cc(C(=O)N2CCOC3(CCNCC3)C2)no1.O=C(O)C(F)(F)F,0.7137%,-
COc1ccnc(N2CCN(C(=O)c3cnn(C)c3C3CC3)CC2)n1,4.112%,10.57%
CNc1nc(C)c(C(=O)N2C[C@H]3CC[C@@H]2CN(c2cnccn2)C3)s1,-,9.221%
CCNc1ncc(C(=O)N2CCc3c(nc(C)nc3N(C)C)C2)cn1,-10.76%,0%
CS(=O)(=O)N1CCOCC12CCN(Cc1ccc(F)cc1)CC2,-,-1.463%
Cc1nccc(C2CN(S(=O)(=O)N(C)C)C2)n1,42.57%,-4.369%
Cc1ccc(CN2CC[C@@H]3[C@@H](CO[C@H]3CN3CCN(C)CC3)C2)cc1,-,-9.63%
Cc1ccc(S(=O)(=O)N2C[C@H]3C[C@H](NC(=O)c4cnn(C)c4)[C@H]3C2)cc1,-,1.363%
O=C1NCCN1CCNc1cc(-c2ccccc2)nc2ccnn12,19.22%,3.398%
O=S1(=O)N=C(SCc2ccc(Cl)cc2)Nc2ccc(F)cc21,63.48%,2.915%
O=C(NC1CCCN(CCc2ccccc2)C1)c1ccccn1 (configuration not stated),17%,0.6017%
Cn1c(CN2CCCC(Cn3cc(CCO)nn3)C2)cc2ccccc21 (configuration not stated),8.666%,8.333%
COc1cccc(F)c1-c1nc2c([nH]1)c(C1CC1)nn2C,-14.25%,-0.9153%
O=C(O)C(F)(F)F.O=C(O)C(F)(F)F.[H][C@@]12CCCO[C@]1([H])[C@H](N1CCN(C)CC1)CN2C(=O)Cc1ccsc1,-14.2%,-
O=C(O)C(F)(F)F.[H][C@@]12COC[C@@H](CC(=O)N3CCCC3)[C@]1([H])CN(Cc1ccc(OC)cc1)C2,34.66%,-
Cc1cccc(C)c1CN1C(=O)CC2(CCSC2)C1=O (configuration not stated),-17.96%,1.621%
O=C(CN1CCOCC1)Nc1ccc(C(F)(F)F)cc1Cl,-7.596%,1.151%
Cc1ccccc1CSc1nc(N)cc(N2C[C@H](O)[C@@H](N(C)C)C2)n1,15.42%,-38.77%
FC(F)(F)c1ccnc(N2CCCN(C3CCOCC3)CC2)c1,21.05%,-6.699%
Cc1ccc(C(=O)N2CCC3(CC2)CC(NC(=O)C(C)C)CO3)cc1 (configuration not stated),-8.532%,6.361%
Cc1ccc(CN2CCC[C@]3(C(=O)O)CN(CC4CC4)C[C@@H]3C2)s1,-,0.7407%
CC1CN(C(=O)C2(c3ccc(F)cc3F)CCOCC2)CCO1 (configuration not stated),4.94%,3.831%
CO[C@H]1CCN(c2ncccn2)[C@H]1Cc1ccccc1,10.43%,-0.9091%
COC(=O)C(C)CN(C)S(=O)(=O)c1c(Br)cc2[nH]c(=O)oc2c1Cl (configuration not stated),53.15%,13.76% & 38.26%
O=C(CC1CC1)N[C@@H]1CN(Cc2cccnc2)C[C@@H]2CCCO[C@@H]21,-,2.28%
CCN1CCN(C(=O)c2cc(C(=O)OC)nn2-c2ccccc2)CC1,-1.007%,3.457%
CN(C(=O)CSc1ccccn1)C1CCCN(CCc2ccccc2)C1 (configuration not stated),14.36%,-0.4292%
Cc1csc(CNC(=O)N2CCN(Cc3cc(C)on3)CC2)n1,-8.437%,0.9126%
CN(C)C(=O)c1nn(C)c2c1CN(Cc1ccc(F)cc1)C2,-,1.85%
CN(C)C(=O)Cn1cc(C(=O)NCCc2cccc(Cl)c2Cl)nn1,4.185%,1.965%
CC(C)NC(=O)C1(CC2CC(c3ccc(F)cc3)=NO2)CCNCC1.O=C(O)CC(O)(CC(=O)O)C(=O)O (configuration not stated),-20.09%,-
O=C(O)C(F)(F)F.O=C(O)C(F)(F)F.c1ccc(OC2COC3(CCN(CC4CC4)CC3)C2)nc1 (configuration not stated),39.09%,-
Cn1ccc(C(=O)Nc2nnc(-c3ccccn3)[nH]2)cc1=O,2.93%,4.703%
Cc1noc(C)c1C(=O)NCC(c1ccc(F)cc1)N(C)C (configuration not stated),16.36%,4.047%
CNC(=O)CCc1cc(C)nc(C2CCN(CC(=O)N(C)C)CC2)c1,27.5%,5.502%
N#Cc1ccc(C(=O)NCC2(N3CCOCC3)CCCC2)nc1,-1.241%,3.571%

5 of the entries, repeated:

For [H][C@]12CCN(C(=O)NC(C)C)CC[C@@]1([H])S(=O)(=O)N(Cc1cccc(Cl)c1)C2 the result was Leishmania in macrophages: -20.54%.
For O=C(O)C(F)(F)F.[H][C@@]12COC[C@@H](CC(=O)N3CCCC3)[C@]1([H])CN(Cc1ccc(OC)cc1)C2 the result was Leishmania in macrophages: 34.66%.
For CCn1ccnc1CN1CCCN(C(=O)c2cccc(C#N)c2)CC1 the result was Leishmania in macrophages: 22.8%; CoaBC: 5.181%.
For CC1CN(C(=O)C2(c3ccc(F)cc3F)CCOCC2)CCO1 (configuration not stated) the result was Leishmania in macrophages: 4.94%; CoaBC: 3.831%.
For O=C(NC1CCCN(CCc2ccccc2)C1)c1ccccn1 (configuration not stated) the result was Leishmania in macrophages: 17%; CoaBC: 0.6017%.

Source: ChEMBL document CHEMBL3988442, “University of Dundee, Small-Polar-MMV Screening Library” (2021).